Test results reported in the supplement of paper PMC7125110.
± gives the standard error. The uncertainty is large for many entries.

B1: glmS ribozyme (parent)
chain: AUAAAAGCGCCAGAACUACAGAAAUGUAGUUGACGAGGAGGAGGUUUAUCGAAUUUUCGGCGGAUGCCUCCAAA

Variants of: B1
Test: KM; higher = weaker cofactor use; RNA array
Conditions: with glucosamine-6-phosphate
How it was run: (§1)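 Weighted Michaelis–Menten fits across concentrations supplied kcat and KM, based on kobs from one- or two-exponential decay fits to normalised per-tile medians. The data came from barcoded ribozyme variants transcribed in situ by E. coli RNA polymerase on sequenced MiSeq chips and tracked at 37 °C by a hybridised Cy3 probe. Glucosamine-6-phosphate (40 μM to 10 mM) in HEPES/KCl/Mg(OAc)2 buffer was flowed in.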

Variant	KM [µM]
G44A U46G	979 ± 500
G44C	1980 ± 570
G44C C50A	105 ± 18
G44C U47G G66U C67G	2230 ± 1300
G44C U54C	3920 ± 2700
G44C U55C	125 ± 78
G44U A52U	11000 ± 1500
G44U C70U	861 ± 820
G44U G66A	1210 ± 650
G44U U54A	983 ± 780
G44U U56G	3010 ± 1100
U45A A64C	2520 ± 570
U45A A64G	600 ± 260
U45A C58A	3370 ± 1700
U45A C71A	1010 ± 610
U45A C71G	458 ± 340
U45A C71U	2060 ± 810
U45A U55A	312 ± 200
U45A U56C	3070 ± 1400
U45G A48U	3040 ± 1200
U45G A52U	12200 ± 4700
U45G C71U	2380 ± 450
U45G U55G	2970 ± 1000
U45G U65G	2200 ± 1000
U46A A53G	1090 ± 610
U46A A64G	2700 ± 990

Variant	KM [µM]
U46A C67U	2370 ± 780
U46A C70U	1440 ± 970
U46A G60A	27.6 ± 23
U46A G66U	5940 ± 2100
U46A U47G	1480 ± 970
U46A U56G	3570 ± 1800
U46C A48C	4620 ± 2400
U46C A48U	1540 ± 940
U46C A53U	1640 ± 260
U46C C70A	685 ± 430
U46C C70G	1060 ± 650
U46C C70U	2770 ± 1500
U46C U55C	3630 ± 1700
U46C U56G	1390 ± 310
U46C U65A	4190 ± 3100
U46G C68A	281 ± 210
U46G G66A	2580 ± 720
U46G U55A	4010 ± 2100
U46G U55C	3110 ± 1900
U47A A52U	2690 ± 570
U47A A53U	373 ± 260
U47A C67A	2150 ± 1400
U47A G66U	1780 ± 480
U47C A52C	3020 ± 290
U47C A64G	1890 ± 650
U47C C68G	573 ± 80

Variant	KM [µM]
U47C C70A	1300 ± 710
U47C C71A	3980 ± 2000
U47C U56A	2640 ± 1700
U47C U56G	1580 ± 540
U47C U57C	890 ± 540
U47G C70A	33.9 ± 29
U47G C70G	43.2 ± 27
U47G C71A	963 ± 900
U47G U54A	1710 ± 1100
U47G U55G	1110 ± 640
A48C C70G	1030 ± 750
A48C C70U	3470 ± 540
A48C U56A	3130 ± 1900
A48G C50A G63A	29.7 ± 27
A48G C58U	1220 ± 940
A48G C71U	382 ± 350
A48G U55A	1160 ± 180
A48G U56G	696 ± 110
A48U C67A	714 ± 700
A48U U54C	4280 ± 2200
A48U U54G	1560 ± 790
A48U U55A	1310 ± 530
A48U U56C	2570 ± 1600
U49A	442 ± 350
U49A C67U	256 ± 130
U49C A53U	45 ± 30

6 consecutive entries already listed, for reference:
Variant	KM [µM]
G44U G66A	1210 ± 650
G44U U54A	983 ± 780
G44U U56G	3010 ± 1100
U45A A64C	2520 ± 570
U45A A64G	600 ± 260
U45A C58A	3370 ± 1700

Remaining list, next part

Variant	KM [µM]
U49C C71A	362 ± 350
U49G C67G	1300 ± 660
U49G C70G	72.1 ± 49
U49G G66U	5640 ± 59
U49G U54G C67A	268 ± 250
U49G U65A	3310 ± 1900
C50A	579 ± 130
C50A G51A	75.6 ± 67
C50G C67A	32.5 ± 20
C50G C71U	28.8 ± 24
G51A C68A	141 ± 140
G51A G59U	157 ± 36
A52C	835 ± 150
A52C U55G	22400 ± 2800
A52C U65G	197 ± 67
A52G A53U	1900 ± 430
A52G C71U	3440 ± 380
A52G G66U	4030 ± 1300
A52G U57A	3470 ± 1700
A52G U57C	1790 ± 110
A52U A53U	4210 ± 360
A52U C71G	1700 ± 380
A52U U55G	2150 ± 980
A52U U69C	1990 ± 540
A53C C68U	858 ± 310
A53C G66A	1670 ± 640

Variant	KM [µM]
A53C U54A	2810 ± 1700
A53C U57G	2470 ± 1700
A53G C61U	11500 ± 850
A53G C71A	572 ± 380
A53G U54A	912 ± 610
A53G U56A	1830 ± 890
A53U A64G	1970 ± 260
A53U C58G	1390 ± 370
A53U C68G	72.8 ± 62
U54C A64C	3560 ± 1000
U54C A64G	1100 ± 570
U54C C70A	379 ± 290
U54C C70G	104 ± 73
U54C G62C	133 ± 48
U54C U57G	66500 ± 2300
U54C U65C	836 ± 700
U54C U65G	5410 ± 1800
U54C U69G	168 ± 98
U54G A64G	1450 ± 800
U54G U56A G63C	189 ± 180
U54G U69A	42.4 ± 26
U55A	1770 ± 530
U55A C58G	17000 ± 11000
U55A C68G	51.2 ± 14
U55A C71G	478 ± 320
U55A G66A	2410 ± 1300

Variant	KM [µM]
U55A G66U	2070 ± 1400
U55A U65C	1160 ± 230
U55C C68U	397 ± 270
U55C C70U	5960 ± 3000
U55C U56G	4170 ± 2400
U55C U57C	1420 ± 1200
U55C U65C	1500 ± 780
U55G C67A	88.4 ± 54
U55G C70G	103 ± 81
U55G G66C	1400 ± 710
U55G U57C	4830 ± 1100
U55G U69C	33.6 ± 22
U56A A64C	594 ± 550
U56A C58G	1930 ± 470
U56A C70A	74.4 ± 60
U56A C71A	2960 ± 1600
U56A U65A	2730 ± 1500
U56A U69A	85.5 ± 69
U56C A64G	2690 ± 560
U56C C67U	7870 ± 360
U56G C67U	1070 ± 700

Variants of: B1
Test: self-cleavage kobs at 640 uM GlcN6P; higher = faster cleavage; RNA array
Conditions: with glucosamine-6-phosphate
How it was run: as §1

Variant	self-cleavage kobs at 640 uM GlcN6P [s⁻¹]
G44C U54C	1.66e-05 ± 1.6e-05
U46C A48U	1.68e-05 ± 1e-05
A48C U56A	1.3e-05 ± 1.3e-05
A48G U55A	3.72e-05 ± 2e-05
A48G U56G	3.5e-05 ± 2.1e-05
U49A	< 1e-05
G51A C68A	2.73e-05 ± 1.7e-05
U56A A64C	2.05e-05 ± 1.6e-05

Variants of: B1
Test: self-cleavage kobs at 2500 uM GlcN6P; higher = faster cleavage; RNA array
Conditions: with glucosamine-6-phosphate
How it was run: as §1

Variant	self-cleavage kobs at 2500 uM GlcN6P [s⁻¹]
G44C U55C	3.04e-05 ± 1.6e-05
U45A A64G	0.0536 ± 0.032
U45A C71U	0.0611 ± 0.033
U46G C68A	2.3e-05 ± 2.1e-05
U49G G66U	1.89e-05 ± 1.3e-05
G51A C68A	2.69e-05 ± 1.7e-05
U54C U57G	1.78e-05 ± 1.2e-05
U55C C68U	2.74e-05 ± 1.5e-05
U55G C67A	0.00778 ± 0.0068

A run of entries taken from the entries so far:
Variant	self-cleavage kobs at 2500 uM GlcN6P [s⁻¹]
U46G C68A	2.3e-05 ± 2.1e-05
U49G G66U	1.89e-05 ± 1.3e-05
G51A C68A	2.69e-05 ± 1.7e-05
U54C U57G	1.78e-05 ± 1.2e-05

Variants of: B1
Test: self-cleavage kobs at 40 uM GlcN6P; higher = faster cleavage; RNA array
Conditions: with glucosamine-6-phosphate
How it was run: as §1

Variant	self-cleavage kobs at 40 uM GlcN6P [s⁻¹]
U45A C58A	3.26e-05 ± 3.2e-05
U46A U56G	3.22e-05 ± 1.8e-05
U55A U65C	2.09e-05 ± 1.7e-05
U55G G66C	2.46e-05 ± 1.6e-05

Variants of: B1
Test: self-cleavage kobs at 160 uM GlcN6P; higher = faster cleavage; RNA array
Conditions: with glucosamine-6-phosphate
How it was run: as §1

Variant	self-cleavage kobs at 160 uM GlcN6P [s⁻¹]
U45A C58A	3.34e-05 ± 2.1e-05
U46A A64G	0.000211 ± 0.00015
U47C C68G	2.22e-05 ± 2e-05
U47C C70A	2.19e-05 ± 1.3e-05
A48C C70U	1.93e-05 ± 1.4e-05
A48U C67A	2.2e-05 ± 2e-05
A48U U54C	3.41e-05 ± 1.9e-05
U49G C67G	1.98e-05 ± 1.9e-05
C50A	< 1e-05
A53C U57G	1.93e-05 ± 1.3e-05
U56A A64C	2.59e-05 ± 2.5e-05

Variants of: B1
Test: self-cleavage kobs at 10000 uM GlcN6P; higher = faster cleavage; RNA array
Conditions: with glucosamine-6-phosphate
How it was run: as §1

Variant	self-cleavage kobs at 10000 uM GlcN6P [s⁻¹]
U47C A52C	3.09e-05 ± 1.9e-05
U47G C70G	0.00297 ± 0.0021
U49G U65A	1.68e-05 ± 1.4e-05
C50G C71U	0.000765 ± 0.00055
A52C U55G	1.76e-05 ± 1.3e-05
A53G C61U	1.19e-05 ± 8e-06
U56C C67U	2.11e-05 ± 1.1e-05
